PubChem BioAssay AID1224828 – NIAID, 2016
Assay: 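Regulators linking TLR4 signalling to p65 nuclear translocation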 (primary screen). Cell system: mouse RAW264.7 G9 macrophage reporter cells (GFP-p65, Tnf promoter-mCherry). Knock-down reagent: siRNA pool against mouse genes, 100 nM. Duration: 2 days siRNA transfection, then 40 min LPS before fixation. Treatment: LPS (Salmonella minnesota R595) at 10 ng/ml. Detection: 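Microscopy ratio of nuclear to perinuclear-ring GFP-p65 signal, scaled to the plate median; gene score is the average of two replicate robust z-scores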. Direction: p65 translocation robust z-score: higher = more nuclear NF-kappaB p65 after LPS than the plate median; nuclear/cytoplasmic p65 ratio: higher = more nuclear NF-kappaB p65. Hit rule: 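Called active when z exceeds 3.3 or falls under -1.56 (median of Tlr4 controls), giving activity score of at least 50; no calls for control wells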. Calls: active = hit (p65 shift raised or lowered); inactive = no clear change.
The deposit covers about 17,000 reagents; this is an unselected part. 762 of them (4.5%) count as active. 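Active calls include both raised and lowered p65 entry, mostly lowered; wells with fewer than 50 cells lack a z-score.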 The raw values are shown without normalisation. A number with no mark means an inactive call. The numbers tell different reagents against one gene apart.

The opening 3 records, to show the layout:
gene symbol | pool no. | p65 translocation robust z-score | nuclear/cytoplasmic p65 ratio, rep 1 | nuclear/cytoplasmic p65 ratio, rep 2 | low cell count flag
Chchd5 (coiled-coil-helix-coiled-coil-helix domain containing 5) | 1 | 1.13 | 1.66 | 1.57 | enough cells to score
Snx12 (sorting nexin 12) | 1 | – | 1.15 | 1.16 | fewer than 50 cells per well; well left out of scoring
Fmo3 (flavin containing monooxygenase 3) | 1 | 0.15 | 1.44 | 1.41 | enough cells to score

Main list, from the start:
gene symbol | pool no. | p65 translocation robust z-score | nuclear/cytoplasmic p65 ratio, rep 1 | nuclear/cytoplasmic p65 ratio, rep 2 | low cell count flag
Chchd5 (coiled-coil-helix-coiled-coil-helix domain containing 5) | 1 | 1.13 | 1.66 | 1.57 | enough cells to score
Snx12 (sorting nexin 12) | 1 | – | 1.15 | 1.16 | fewer than 50 cells per well; well left out of scoring
Fmo3 (flavin containing monooxygenase 3) | 1 | 0.15 | 1.44 | 1.41 | enough cells to score
Mif | 1 | 1.29 | 1.52 | 1.59 | enough cells to score
Nwd1 (NACHT and WD repeat domain containing 1) | 1 | – | 1.13 | 1.57 | fewer than 50 cells per well; well left out of scoring
Iqsec1 (IQ motif and Sec7 domain 1) | 1 | -1.58 (active) | 1.38 | 1.28 | enough cells to score
Prkdc (protein kinase, DNA activated, catalytic polypeptide) | 1 | 0.14 | 1.71 | 1.57 | enough cells to score
Sh2d4b (SH2 domain containing 4B) | 1 | 0.24 | 1.68 | 1.74 | enough cells to score
Scaf8 (SR-related CTD-associated factor 8) | 1 | 0.64 | 1.4 | 1.37 | enough cells to score
Scaf8 (SR-related CTD-associated factor 8) | 2 | 0.88 | 1.54 | 1.6 | enough cells to score
Cxcl2 (C-X-C motif chemokine ligand 2) | 1 | 1.35 | 1.65 | 1.78 | enough cells to score
Smurf2 (SMAD specific E3 ubiquitin protein ligase 2) | 1 | 0.88 | 1.63 | 1.86 | enough cells to score
Naip6 (NLR family, apoptosis inhibitory protein 6) | 1 | 0.97 | 1.71 | 1.8 | enough cells to score
Tmem266 (transmembrane protein 266) | 1 | -0.08 | 1.53 | 1.74 | enough cells to score
Cpne2 (copine II) | 1 | -0.69 | 1.54 | 1.6 | enough cells to score
Csf3r (colony stimulating factor 3 receptor) | 1 | -0.96 | 1.34 | 1.26 | enough cells to score
Cyp2d26 (cytochrome P450, family 2, subfamily d, polypeptide 26) | 1 | -1.23 | 1.38 | 1.59 | enough cells to score
Dcakd (dephospho-CoA kinase domain containing) | 1 | 0.97 | 1.51 | 1.73 | enough cells to score
Mtss1 (MTSS I-BAR domain containing 1) | 1 | 0.11 | 1.74 | 1.66 | enough cells to score
Fkbp14 (FK506 binding protein 14) | 1 | -0.28 | 1.57 | 1.57 | enough cells to score
Mcmbp (minichromosome maintenance complex binding protein) | 1 | 0.7 | 1.53 | 1.65 | enough cells to score
Rasgef1b (RasGEF domain family, member 1B) | 1 | 1.02 | 1.49 | 1.35 | enough cells to score
Ca1 (carbonic anhydrase 1) | 1 | -0.38 | 1.51 | 1.6 | enough cells to score
Zdhhc14 (zinc finger, DHHC domain containing 14) | 1 | -0.88 | 1.37 | 1.09 | enough cells to score
Chst5 (carbohydrate sulfotransferase 5) | 1 | 0 | 1.41 | 1.38 | enough cells to score
Il6st (interleukin 6 signal transducer) | 1 | -0.61 | 1.38 | 1.31 | enough cells to score
Rccd1 (RCC1 domain containing 1) | 1 | 0.78 | 1.59 | 1.19 | enough cells to score
Sin3b (transcriptional regulator, SIN3B (yeast)) | 1 | 0.69 | 1.62 | 1.34 | enough cells to score
Klhl22 (kelch-like 22) | 1 | -1.07 | 1.39 | 1.3 | enough cells to score
Abi2 (abl interactor 2) | 1 | -0.71 | 1.58 | 1.43 | enough cells to score
Mboat1 (membrane bound O-acyltransferase domain containing 1) | 1 | -0.19 | 1.65 | 1.54 | enough cells to score
Hnrnpa3 (heterogeneous nuclear ribonucleoprotein A3) | 1 | -0.01 | 1.45 | 1.41 | enough cells to score
Ubox5 (U box domain containing 5) | 1 | 0.38 | 1.7 | 1.65 | enough cells to score
4933402J07Rik (RIKEN cDNA 4933402J07 gene) | 1 | – | 1.04 | 1.1 | fewer than 50 cells per well; well left out of scoring
Kirrel2 (kirre like nephrin family adhesion molecule 2) | 1 | 0.05 | 1.55 | 1.44 | enough cells to score
Cyp4a31 (cytochrome P450, family 4, subfamily a, polypeptide 31) | 1 | -2.19 (active) | 1.41 | 1.2 | enough cells to score
Slc23a2 | 1 | 2.01 | 1.62 | 1.53 | enough cells to score
Mcpt4 (mast cell protease 4) | 1 | -0.1 | 1.71 | 1.34 | enough cells to score
Piwil4 (piwi-like RNA-mediated gene silencing 4) | 1 | 0.11 | 1.46 | 1.54 | enough cells to score
Klra23 (killer cell lectin-like receptor subfamily A, member 23) | 1 | -0.04 | 1.5 | 1.35 | enough cells to score
